Assay results taken from publication doi:10.1101/2024.07.25.605061.
Results are given in words; binding and its absence hold for the method and conditions named. For some assays here: In cells and extracts the contact can be indirect. Some binding calls cover weakened binding; strength is not graded here. Tags and fused reporters may be left off the sequences shown.

Legend:
[1] = molecular target: T1, GTE4-FLAG (Arabidopsis thaliana) (UniProt Q9LNC4); assay: co-IP
T1 sequence: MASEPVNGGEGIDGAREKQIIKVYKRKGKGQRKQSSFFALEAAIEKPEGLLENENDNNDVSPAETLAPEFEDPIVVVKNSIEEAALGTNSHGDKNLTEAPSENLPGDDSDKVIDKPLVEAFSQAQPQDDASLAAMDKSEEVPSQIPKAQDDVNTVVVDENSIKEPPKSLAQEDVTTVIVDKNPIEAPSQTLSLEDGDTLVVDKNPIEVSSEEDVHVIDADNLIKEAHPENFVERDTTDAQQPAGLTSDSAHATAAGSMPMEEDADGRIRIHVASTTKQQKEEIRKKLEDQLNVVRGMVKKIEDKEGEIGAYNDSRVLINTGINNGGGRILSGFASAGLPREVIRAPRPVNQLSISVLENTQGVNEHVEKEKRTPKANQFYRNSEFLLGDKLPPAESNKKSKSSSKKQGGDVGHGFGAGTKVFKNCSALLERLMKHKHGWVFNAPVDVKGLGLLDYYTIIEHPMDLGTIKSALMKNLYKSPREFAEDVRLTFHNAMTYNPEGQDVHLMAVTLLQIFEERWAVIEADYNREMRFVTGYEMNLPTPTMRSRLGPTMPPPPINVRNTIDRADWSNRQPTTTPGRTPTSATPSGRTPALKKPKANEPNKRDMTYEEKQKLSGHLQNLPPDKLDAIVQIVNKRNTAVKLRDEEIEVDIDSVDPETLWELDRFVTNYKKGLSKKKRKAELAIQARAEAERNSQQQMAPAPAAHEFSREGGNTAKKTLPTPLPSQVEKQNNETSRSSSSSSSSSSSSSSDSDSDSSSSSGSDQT

[2] = molecular target: T2, GTE4-ΔEID-FLAG (Arabidopsis thaliana) (UniProt Q9LNC4); assay: co-IP
T2 sequence: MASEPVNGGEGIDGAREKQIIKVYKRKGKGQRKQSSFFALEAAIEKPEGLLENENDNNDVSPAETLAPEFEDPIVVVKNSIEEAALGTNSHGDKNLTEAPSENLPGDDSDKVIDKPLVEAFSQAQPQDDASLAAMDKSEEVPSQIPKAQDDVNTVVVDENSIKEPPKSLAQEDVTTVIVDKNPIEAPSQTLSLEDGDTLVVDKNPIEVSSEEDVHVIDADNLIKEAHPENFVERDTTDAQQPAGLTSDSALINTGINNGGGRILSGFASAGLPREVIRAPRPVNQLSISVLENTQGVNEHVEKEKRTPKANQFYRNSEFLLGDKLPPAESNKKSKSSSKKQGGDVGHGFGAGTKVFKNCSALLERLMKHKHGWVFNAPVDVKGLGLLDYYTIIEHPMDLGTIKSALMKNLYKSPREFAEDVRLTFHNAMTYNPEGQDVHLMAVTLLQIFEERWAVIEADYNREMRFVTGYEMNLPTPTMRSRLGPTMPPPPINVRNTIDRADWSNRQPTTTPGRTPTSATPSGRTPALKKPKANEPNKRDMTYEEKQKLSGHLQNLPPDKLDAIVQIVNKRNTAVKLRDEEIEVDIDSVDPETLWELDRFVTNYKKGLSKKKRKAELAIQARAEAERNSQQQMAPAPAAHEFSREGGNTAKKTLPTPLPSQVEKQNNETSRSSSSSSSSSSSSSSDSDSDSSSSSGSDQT

[3] = molecular target: T3, EID-deleted GTE4 (ΔEID), yeast two-hybrid fusion (Arabidopsis thaliana) (UniProt Q9LNC4); assay: two-hybrid
T3 sequence: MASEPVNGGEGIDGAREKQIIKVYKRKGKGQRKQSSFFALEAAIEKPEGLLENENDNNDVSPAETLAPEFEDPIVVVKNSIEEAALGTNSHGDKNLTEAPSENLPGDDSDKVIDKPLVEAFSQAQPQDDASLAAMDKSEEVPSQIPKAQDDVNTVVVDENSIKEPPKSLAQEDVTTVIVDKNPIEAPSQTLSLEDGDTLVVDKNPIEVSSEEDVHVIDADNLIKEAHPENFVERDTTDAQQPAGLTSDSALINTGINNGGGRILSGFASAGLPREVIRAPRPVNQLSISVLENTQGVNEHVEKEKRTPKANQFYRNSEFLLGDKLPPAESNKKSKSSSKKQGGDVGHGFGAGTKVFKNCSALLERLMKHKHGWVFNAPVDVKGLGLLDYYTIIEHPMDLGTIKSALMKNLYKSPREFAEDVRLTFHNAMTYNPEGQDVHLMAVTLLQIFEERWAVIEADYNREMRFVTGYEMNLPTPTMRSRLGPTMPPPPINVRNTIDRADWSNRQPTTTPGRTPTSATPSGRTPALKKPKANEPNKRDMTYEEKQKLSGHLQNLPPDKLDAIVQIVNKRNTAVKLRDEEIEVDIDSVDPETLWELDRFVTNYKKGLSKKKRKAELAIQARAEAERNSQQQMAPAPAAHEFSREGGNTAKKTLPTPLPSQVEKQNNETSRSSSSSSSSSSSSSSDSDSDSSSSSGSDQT

[4] = molecular target: T4, GTE4 EML-interacting domain (amino acids 251-316), yeast two-hybrid fusion (Arabidopsis thaliana) (UniProt Q9LNC4); assay: two-hybrid
T4 sequence: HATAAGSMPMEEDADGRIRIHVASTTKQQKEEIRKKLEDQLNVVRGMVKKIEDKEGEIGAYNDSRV

[5] = molecular target: T5, GTE4, full-length, yeast two-hybrid fusion (Arabidopsis thaliana) (UniProt Q9LNC4); assay: two-hybrid
T5 sequence: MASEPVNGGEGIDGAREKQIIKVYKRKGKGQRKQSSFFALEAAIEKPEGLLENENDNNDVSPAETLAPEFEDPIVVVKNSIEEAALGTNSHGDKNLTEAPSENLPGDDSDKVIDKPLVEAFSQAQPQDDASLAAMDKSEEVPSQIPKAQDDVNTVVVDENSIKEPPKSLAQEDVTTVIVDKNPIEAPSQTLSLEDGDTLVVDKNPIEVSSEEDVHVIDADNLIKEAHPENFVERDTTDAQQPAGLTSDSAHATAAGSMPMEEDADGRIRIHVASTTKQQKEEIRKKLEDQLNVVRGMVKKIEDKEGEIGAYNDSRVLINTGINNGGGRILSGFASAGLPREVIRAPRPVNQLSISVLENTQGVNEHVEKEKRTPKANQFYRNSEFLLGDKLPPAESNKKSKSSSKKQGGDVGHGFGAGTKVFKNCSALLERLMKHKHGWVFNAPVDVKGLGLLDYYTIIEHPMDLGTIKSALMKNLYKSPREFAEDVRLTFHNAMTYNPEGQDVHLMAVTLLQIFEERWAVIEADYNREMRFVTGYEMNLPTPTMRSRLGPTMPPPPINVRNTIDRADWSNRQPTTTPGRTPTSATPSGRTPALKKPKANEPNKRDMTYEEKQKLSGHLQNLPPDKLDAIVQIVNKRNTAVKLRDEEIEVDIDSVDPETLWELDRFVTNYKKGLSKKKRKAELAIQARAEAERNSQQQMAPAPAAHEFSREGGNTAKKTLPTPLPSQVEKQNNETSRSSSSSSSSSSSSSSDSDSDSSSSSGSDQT

[6] = molecular target: T6, EML1, full-length, yeast two-hybrid fusion (Arabidopsis thaliana) (UniProt Q9C7C4); assay: two-hybrid
T6 sequence: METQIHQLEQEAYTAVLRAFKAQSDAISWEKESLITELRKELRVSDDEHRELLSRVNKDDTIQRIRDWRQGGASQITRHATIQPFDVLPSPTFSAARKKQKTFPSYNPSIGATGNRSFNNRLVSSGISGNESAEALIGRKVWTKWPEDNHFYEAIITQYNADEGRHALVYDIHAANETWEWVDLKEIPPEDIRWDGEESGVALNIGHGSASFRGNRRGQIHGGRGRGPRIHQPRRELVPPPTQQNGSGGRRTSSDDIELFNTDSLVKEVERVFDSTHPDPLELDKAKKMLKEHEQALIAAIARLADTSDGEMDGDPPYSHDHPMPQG

B1: EML2-Myc (protein, UniProt Q9FG29 1-313)
chain: MEAQIHILEQEAYSAVLRAFQAQADEFSWDKATVMTNLRKELRISDDENRQLLNNVHNDDLIKRIRDSRPRGGNQVVRHQSLDVHPSPTFSASRKKQKTFQSYPSIGSTRSKSFNNRVVSANEPAEALIGRKVWTKWPEDNSFYEAVVTQYNANEGRHALVYDINTVNETWEWVDLNEIPTKDIRWDGEEDGVTLNVGHGGGTTRGNRRTLSHGGRGRGPRTQPRREHLATENGGGRKFFGEIELFNTDSLVKEVERVFDSNLPDPHELDKAKKLLKEHEQALIAAIARLTDASDYESDGEEPYSHELPMLLG
binding [1]: binds
binding [2]: no binding

B2: EML1, full-length, yeast two-hybrid fusion (protein, UniProt Q9C7C4 1-327)
chain: METQIHQLEQEAYTAVLRAFKAQSDAISWEKESLITELRKELRVSDDEHRELLSRVNKDDTIQRIRDWRQGGASQITRHATIQPFDVLPSPTFSAARKKQKTFPSYNPSIGATGNRSFNNRLVSSGISGNESAEALIGRKVWTKWPEDNHFYEAIITQYNADEGRHALVYDIHAANETWEWVDLKEIPPEDIRWDGEESGVALNIGHGSASFRGNRRGQIHGGRGRGPRIHQPRRELVPPPTQQNGSGGRRTSSDDIELFNTDSLVKEVERVFDSTHPDPLELDKAKKMLKEHEQALIAAIARLADTSDGEMDGDPPYSHDHPMPQG
binding [3]: no binding
binding [4]: binds
binding [5]: binds

B3: EML2, full-length, yeast two-hybrid fusion (protein, UniProt Q9FG29 1-313)
chain: MEAQIHILEQEAYSAVLRAFQAQADEFSWDKATVMTNLRKELRISDDENRQLLNNVHNDDLIKRIRDSRPRGGNQVVRHQSLDVHPSPTFSASRKKQKTFQSYPSIGSTRSKSFNNRVVSANEPAEALIGRKVWTKWPEDNSFYEAVVTQYNANEGRHALVYDINTVNETWEWVDLNEIPTKDIRWDGEEDGVTLNVGHGGGTTRGNRRTLSHGGRGRGPRTQPRREHLATENGGGRKFFGEIELFNTDSLVKEVERVFDSNLPDPHELDKAKKLLKEHEQALIAAIARLTDASDYESDGEEPYSHELPMLLG
binding [6]: binds
binding [5]: binds

B4: N-terminal region of EML1 (amino acids 1-293), yeast two-hybrid fusion (domain or fragment, UniProt Q9C7C4 1-293)
chain: METQIHQLEQEAYTAVLRAFKAQSDAISWEKESLITELRKELRVSDDEHRELLSRVNKDDTIQRIRDWRQGGASQITRHATIQPFDVLPSPTFSAARKKQKTFPSYNPSIGATGNRSFNNRLVSSGISGNESAEALIGRKVWTKWPEDNHFYEAIITQYNADEGRHALVYDIHAANETWEWVDLKEIPPEDIRWDGEESGVALNIGHGSASFRGNRRGQIHGGRGRGPRIHQPRRELVPPPTQQNGSGGRRTSSDDIELFNTDSLVKEVERVFDSTHPDPLELDKAKKMLKEH
binding [5]: binds
